# Source: article PMC5996148
# Values joined by “and” are separate entries in the source; they are usually repeats but may differ in a detail not shown here. Equal values may be shown once. The list shows a part of the results. For some of these results: The exact form of the protein is not confirmed.
# Columns and labels:
# Experiment in all cases: protein microarray (ProtoArray v5.0), streptavidin-Alexa Fluor 647
# Details in all cases: 3'-biotin; 20 mM Tris (pH 7.5), 5 mM MgCl2, 100 mM KCl, 0.1% Tween-20, A/T-rich and random oligonucleotide blockers; temperature not stated; high values mean tight binding
# [1] = tested on: ELA2B (human)
# [2] = tested on: ELA3A (human)
# [3] = tested on: ELA3B (human)
# [4] = tested on: ELAVL3 (human)
# [5] = tested on: ELF5 (human)
# [6] = biological target: T1, ELK3 (UniProt P41970)
# T1 sequence: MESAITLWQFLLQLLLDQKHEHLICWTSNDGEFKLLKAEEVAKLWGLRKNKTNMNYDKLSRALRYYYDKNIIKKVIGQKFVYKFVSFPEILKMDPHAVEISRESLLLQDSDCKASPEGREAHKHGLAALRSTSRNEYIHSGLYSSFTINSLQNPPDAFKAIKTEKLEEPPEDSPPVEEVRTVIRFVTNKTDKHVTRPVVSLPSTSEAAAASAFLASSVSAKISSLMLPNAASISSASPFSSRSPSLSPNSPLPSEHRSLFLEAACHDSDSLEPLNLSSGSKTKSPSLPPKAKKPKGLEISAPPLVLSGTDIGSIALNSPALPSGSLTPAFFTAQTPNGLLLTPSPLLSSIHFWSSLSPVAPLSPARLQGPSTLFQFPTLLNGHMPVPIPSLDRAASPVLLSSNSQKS
# [7] = tested on: ELMOD1 (human)
# [8] = tested on: ELMOD2 (human)
# [9] = tested on: ELOVL2 (human)
# [10] = tested on: EMILIN1 (human)
sequence,measurement,setting,value
GGGAGGCTGAGGCAGG [G4-1 biotinylated (PQS2)],binding signal,[1],-0.346 z-score
same,binding signal,[2],-0.341 z-score and -0.348 z-score
same,binding signal,[3],-0.278 z-score
same,binding signal,[4],-0.301 z-score
same,binding signal,[5],-0.273 z-score
same,binding signal,[6],-0.329 z-score
same,binding signal,[7],-0.33 z-score
same,binding signal,[8],-0.306 z-score
same,binding signal,[9],-0.33 z-score
same,binding signal,[10],-0.349 z-score

# Reprinted at random: 2 entries already listed.
sequence,measurement,setting,value
GGGAGGCTGAGGCAGG [G4-1 biotinylated (PQS2)],binding signal,[1],-0.346 z-score
same,binding signal,[6],-0.329 z-score
